The target of this assay is CCAAT enhancer binding protein beta (C/EBPβ) (UniProt P17676). In words: co-IP; lysates of cells 48 h after transfection of the relevant plasmids; overnight at 4°C with specific antibodies, protein A or G beads, Western blot; also done in cells with MIR503HG overexpression or knockdown. On the technique in general: A western blot detects proteins with antibodies after separation by electrophoresis.

Sequences of proteins named here, by UniProt entry; tags and fusion partners are left off. Residues count along the entry.
UniProt P17676: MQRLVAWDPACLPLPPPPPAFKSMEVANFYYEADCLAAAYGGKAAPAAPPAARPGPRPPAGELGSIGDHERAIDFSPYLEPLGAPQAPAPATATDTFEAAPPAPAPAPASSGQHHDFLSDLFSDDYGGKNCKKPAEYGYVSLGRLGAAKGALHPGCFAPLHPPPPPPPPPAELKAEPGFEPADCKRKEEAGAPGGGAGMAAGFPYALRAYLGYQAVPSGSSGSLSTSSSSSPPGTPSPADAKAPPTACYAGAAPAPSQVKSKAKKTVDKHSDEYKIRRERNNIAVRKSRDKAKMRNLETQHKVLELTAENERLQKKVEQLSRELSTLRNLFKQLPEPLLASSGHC
UniProt Q68DV7, residues 24-783: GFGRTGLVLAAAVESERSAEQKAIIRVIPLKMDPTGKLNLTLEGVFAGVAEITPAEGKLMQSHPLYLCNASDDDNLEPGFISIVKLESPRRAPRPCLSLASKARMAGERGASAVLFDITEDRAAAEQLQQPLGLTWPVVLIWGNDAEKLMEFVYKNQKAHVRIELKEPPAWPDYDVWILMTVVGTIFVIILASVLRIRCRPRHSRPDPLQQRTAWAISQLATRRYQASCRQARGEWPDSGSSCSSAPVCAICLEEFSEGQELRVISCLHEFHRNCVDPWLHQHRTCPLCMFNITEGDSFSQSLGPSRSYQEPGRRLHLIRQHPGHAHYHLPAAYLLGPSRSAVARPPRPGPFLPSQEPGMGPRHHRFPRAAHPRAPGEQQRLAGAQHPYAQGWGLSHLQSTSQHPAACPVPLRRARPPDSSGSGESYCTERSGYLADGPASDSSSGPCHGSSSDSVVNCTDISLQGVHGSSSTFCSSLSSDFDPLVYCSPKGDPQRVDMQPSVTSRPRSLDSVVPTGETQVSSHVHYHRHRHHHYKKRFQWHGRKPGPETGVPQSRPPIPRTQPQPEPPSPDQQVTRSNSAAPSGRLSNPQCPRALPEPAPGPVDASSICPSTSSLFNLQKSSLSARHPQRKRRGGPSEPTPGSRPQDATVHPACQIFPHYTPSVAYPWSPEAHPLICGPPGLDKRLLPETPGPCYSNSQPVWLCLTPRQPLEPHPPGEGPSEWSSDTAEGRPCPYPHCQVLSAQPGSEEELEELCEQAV

No constants are given. Whether binding was seen depends on the method and setting. In cells and extracts the contact can be indirect. Some entries that bind do so weakly or less than the wild type.

Turning to “E3 ubiquitin ligase RNF43 (from UniProt Q68DV7 24-783) (enzyme)”, the binding entry is “binds”.

Source of the values: paper PMC12148952.
